Measurements reported in PubChem BioAssay AID1159578 (Peter MacCallum Cancer Centre, 2015).
Shown is a random part of about 18,000 reagents. About 1,030 of them (5.7%) were called active. 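Inactive calls also include pools with fewer than 3300 nuclei, whose migration was not assessed.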 Raw values are not corrected between plates. Further read-outs or replicates are left out here. No sequences are given here.

Purpose: 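siRNA pools altering how lymphatic endothelial cells close a scratch wound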 (primary screen)
Cell system: human lymphatic endothelial cells
Knock-down reagent: siRNA pool against human genes, 40 nM
Time to read-out: 48 h after transfection
Measurement: 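Cells stained with dye and imaged after a scratch; covered wound area and nuclei counted, duplicates averaged, migration set against mock wells and turned into a robust z-score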
Scale: migration robust z-score: higher = faster migration into the scratch; nuclei per well: higher = more cells in the well
Active means: 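Pools averaging fewer than 3300 nuclei are never called; remaining pools count as changed when migration robust z lies outside -2 to 2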
Calls: active = migration changed; inactive = no migration change, or too few cells

DTNBP1 (dystrobrevin binding protein 1) | migration robust z-score = -1.13; migration class with cell-count check = migration z between -2 and 2; enough cells; nuclei per well, duplicate mean = 6591; outcome = inactive
NET1 (neuroepithelial cell transforming 1) | migration robust z-score = -0.38; migration class with cell-count check = migration z between -2 and 2; enough cells; nuclei per well, duplicate mean = 6210; outcome = inactive
PRKAB1 (protein kinase AMP-activated non-catalytic subunit beta 1) | migration robust z-score = -2.1; migration class with cell-count check = migration z below -2; enough cells; nuclei per well, duplicate mean = 4408; outcome = active
DEFB115 (defensin beta 115) | migration robust z-score = -0.09; migration class with cell-count check = migration z between -2 and 2; enough cells; nuclei per well, duplicate mean = 4980; outcome = inactive
PRMT1 (protein arginine methyltransferase 1) | migration robust z-score = -1.82; migration class with cell-count check = migration z between -2 and 2; enough cells; nuclei per well, duplicate mean = 5854; outcome = inactive
PHLPP1 (PH domain and leucine rich repeat protein phosphatase 1) | migration robust z-score = -0.44; migration class with cell-count check = migration z between -2 and 2; enough cells; nuclei per well, duplicate mean = 6397; outcome = inactive
YJU2B (YJU2 splicing factor homolog B) | migration robust z-score = 0.08; migration class with cell-count check = migration z between -2 and 2; enough cells; nuclei per well, duplicate mean = 6334; outcome = inactive
ETV3 (ETS variant transcription factor 3) | migration robust z-score = -1.22; migration class with cell-count check = migration z between -2 and 2; enough cells; nuclei per well, duplicate mean = 5496; outcome = inactive

Continued (2 carried over from the part before).
YJU2B (YJU2 splicing factor homolog B) | migration robust z-score = 0.08; migration class with cell-count check = migration z between -2 and 2; enough cells; nuclei per well, duplicate mean = 6334; outcome = inactive
ETV3 (ETS variant transcription factor 3) | migration robust z-score = -1.22; migration class with cell-count check = migration z between -2 and 2; enough cells; nuclei per well, duplicate mean = 5496; outcome = inactive
GPD2 (glycerol-3-phosphate dehydrogenase 2) | migration robust z-score = 0.2; migration class with cell-count check = migration z between -2 and 2; enough cells; nuclei per well, duplicate mean = 6581; outcome = inactive
CST2 (cystatin SA) | migration robust z-score = -0.06; migration class with cell-count check = migration z between -2 and 2; enough cells; nuclei per well, duplicate mean = 5410; outcome = inactive
SLC30A9 | migration robust z-score = -1.86; migration class with cell-count check = migration z between -2 and 2; enough cells; nuclei per well, duplicate mean = 3557; outcome = inactive
WASHC2A (WASH complex subunit 2A) | migration robust z-score = 0.27; migration class with cell-count check = migration z between -2 and 2; enough cells; nuclei per well, duplicate mean = 6533; outcome = inactive
DOCK10 (dedicator of cytokinesis 10) | migration robust z-score = -1.52; migration class with cell-count check = migration z between -2 and 2; enough cells; nuclei per well, duplicate mean = 4646; outcome = inactive
RNF183 (ring finger protein 183) | migration robust z-score = -2.34; migration class with cell-count check = migration z below -2; enough cells; nuclei per well, duplicate mean = 5054; outcome = active
